In this assay the target is SecA1-n/cYFP (Arabidopsis) (UniProt Q9SYI0). In words: split reporter; YFP N- and C-half fusions transiently co-expressed in N. benthamiana mesophyll cells, confocal imaging of chloroplasts after 48 h; some samples treated with 10 mM sodium azide or 30 μM geldanamycin before imaging.

Sequences of proteins named here, by UniProt entry; tags and fusion partners are left off. A change or cut given only in a name is not applied to a line headed by its entry. Residues count along the entry.
UniProt Q9SYI0, residues 73-1022: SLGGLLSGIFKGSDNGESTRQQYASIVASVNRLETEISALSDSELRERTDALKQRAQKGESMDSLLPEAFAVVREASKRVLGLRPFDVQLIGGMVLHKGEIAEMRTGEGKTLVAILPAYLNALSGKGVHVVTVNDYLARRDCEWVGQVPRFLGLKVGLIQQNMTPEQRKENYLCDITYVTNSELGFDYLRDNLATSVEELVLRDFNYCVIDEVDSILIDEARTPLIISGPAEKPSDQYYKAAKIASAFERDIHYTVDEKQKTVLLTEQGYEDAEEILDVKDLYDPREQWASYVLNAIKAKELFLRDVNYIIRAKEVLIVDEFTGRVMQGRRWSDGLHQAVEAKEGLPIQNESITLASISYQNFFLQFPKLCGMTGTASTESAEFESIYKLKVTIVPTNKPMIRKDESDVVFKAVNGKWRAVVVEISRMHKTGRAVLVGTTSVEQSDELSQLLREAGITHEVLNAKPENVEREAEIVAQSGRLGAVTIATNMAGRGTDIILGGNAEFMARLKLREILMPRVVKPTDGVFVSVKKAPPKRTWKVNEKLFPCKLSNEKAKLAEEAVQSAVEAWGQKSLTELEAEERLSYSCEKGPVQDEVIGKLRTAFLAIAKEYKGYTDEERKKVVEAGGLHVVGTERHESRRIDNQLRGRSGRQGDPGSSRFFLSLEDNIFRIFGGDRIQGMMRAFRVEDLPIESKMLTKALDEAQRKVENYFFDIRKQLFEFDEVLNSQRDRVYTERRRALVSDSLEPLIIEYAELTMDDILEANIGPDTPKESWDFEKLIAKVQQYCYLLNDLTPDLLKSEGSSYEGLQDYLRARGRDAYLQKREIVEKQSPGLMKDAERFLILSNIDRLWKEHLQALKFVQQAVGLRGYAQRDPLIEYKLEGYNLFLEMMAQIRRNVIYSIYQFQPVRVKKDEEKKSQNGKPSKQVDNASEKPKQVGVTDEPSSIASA
UniProt P23321: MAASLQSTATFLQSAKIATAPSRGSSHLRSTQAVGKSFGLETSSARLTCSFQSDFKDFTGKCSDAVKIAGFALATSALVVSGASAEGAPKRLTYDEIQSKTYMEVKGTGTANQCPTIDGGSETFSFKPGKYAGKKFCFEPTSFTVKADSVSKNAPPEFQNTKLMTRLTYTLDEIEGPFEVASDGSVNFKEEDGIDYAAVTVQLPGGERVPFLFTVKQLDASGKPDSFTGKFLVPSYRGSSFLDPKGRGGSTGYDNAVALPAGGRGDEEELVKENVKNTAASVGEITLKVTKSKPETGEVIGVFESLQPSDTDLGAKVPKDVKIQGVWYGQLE

Consider one substance from publication PMC11085213, “Plastid Molecular Chaperone HSP90C Interacts with the SecA1 Subunit of Sec Translocase for Thylakoid Protein Transport” (Plants, 2024).

Results are given in words; binding and its absence hold for the method and conditions named. In cells and extracts the contact can be indirect. A result given as binding can be weak or reduced; the word gives no strength.

As for “PsbO1^1–332-n/cYFP (from UniProt P23321)”, the binding entry was “binds”.
